Test results as given in patent publication US9278071B2, “Organic compound nano-powder, method for producing the same and suspension” (Activus Pharma Co., Ltd., priority 2012, dated 2016).
Where a name gives a salt, the structure may show the parent alone.

Experiment: Particle diameter distribution by dynamic light scattering photon correlation method (Delsa Nano)
Format: physicochemical
Conditions: starting organic compound powder before mixing/milling
Source text: The term “average particle diameter” used in present specification means a mathematical average diameter (here, defined as the Dav value) in the particle diameter distribution as measured by a dynamic light scattering photon correlation method. The term “50%-diameter” (defined as median diameter or the D50 value) means a certain particle diameter when amount of a larger side becomes equal to amount of a smaller side of the particle diameters divided into two a powder from the certain particle diameter. The term “90%-diameter” (D90 value) means the particle diameter of the particle at the position of 90% when counted from the smallest size zero (minimum) to 100% (maximum) of the particle diameter in the particle diameter distribution as measured by the above-mentioned measurement method. The term “10%-diameter” (D10 value) means the particle diameter of the particle at the position of 10% when counted from the smallest size zero (minimum) to 100% (maximum) of the particle diameter in the particle diameter distribution as measured by the above-mentioned measurement method. The average particle diameter of the organic compound is more preferably in the range of 50 to 400 nm, further more preferably in the range of 100 to 350 nm. The D90 value of the organic compound is more preferably less than 700 nm, further more preferably less than 500 nm.
10 g of turmeric powder (>90% purity of curcuminoid, manufactured by Bio Actives Japan Corp.), 78 g of D-(−)-mannitol (particle diameter distribution in the range of 10 to 300 μm, manufactured by Wako Pure Chemical Industries, Ltd.), 10 g of a sucrose fatty acid ester (trade name of DK Ester SS, manufactured by Dai-Ichi Kogyo Seiyaku Co., Ltd.), 1.7 g of sodium carboxymethyl cellulose (trade name of Cellogen F-3H, manufactured by Dai-Ichi Kogyo Seiyaku Co., Ltd.) and 9 g of purified water were introduced into a 500-mL trimix kneader (manufactured by Inoue MFG, Inc.) and then were mixed and kneaded with keeping the load current of 0.95 to 1.2 A for about 3 hours. The particle diameter distribution of the turmeric powder measured before the process of mixing by the particle diameter distribution measurement instrument (instrument name of Delsa Nano, manufactured by Beckman Coulter Inc.) was as follows: the average particle diameter (Dav)=12820 nm, the value of D10=3793 nm, the value of D50=10530 nm, and the value of D90=25520 nm. […] The particle diameter distribution of the kneaded product measured by the foregoing particle diameter distribution measurement instrument after the dispersion treatment was as follows: the average particle diameter (Dav)=202 nm, the value of D10=78 nm, the value of D50=162 nm, and the value of D90=338 nm.

SMILES: CC(C)(C(=O)O)c1ccc(C(O)CCCN2CCC(C(O)(c3ccccc3)c3ccccc3)CC2)cc1 (stereo not shown) [fexofenadine hydrochloride powder, fexofenadine hydrochloride]
- Particle diameter distribution, D10, before milling: 3225 nm
- Particle diameter distribution, D50, before milling: 27320 nm
- Particle diameter distribution, D90, before milling: 139600 nm
- Particle diameter distribution, Dav (average particle diameter), before milling: 45660 nm
